For at least one compound, name, drawing or mass did not settle the structure.
Target: T1, Tau210-2202P (Homo sapiens, UniProt P10636)
T1 construct: made in house; host or cells: chemical solid-phase synthesis
Assay: CD spectrum change and Job's plot with Tau210-2202P
Assay type: binding
Settings: [compound 1]+[Tau210-2202P]=20 μM, pH 7.2, HEPES

The chains behind the UniProt entries cited, without tags or fusion partners. Where a name states a change or a piece, a line headed by the entry shows the natural chain unless it says otherwise.
UniProt P10636: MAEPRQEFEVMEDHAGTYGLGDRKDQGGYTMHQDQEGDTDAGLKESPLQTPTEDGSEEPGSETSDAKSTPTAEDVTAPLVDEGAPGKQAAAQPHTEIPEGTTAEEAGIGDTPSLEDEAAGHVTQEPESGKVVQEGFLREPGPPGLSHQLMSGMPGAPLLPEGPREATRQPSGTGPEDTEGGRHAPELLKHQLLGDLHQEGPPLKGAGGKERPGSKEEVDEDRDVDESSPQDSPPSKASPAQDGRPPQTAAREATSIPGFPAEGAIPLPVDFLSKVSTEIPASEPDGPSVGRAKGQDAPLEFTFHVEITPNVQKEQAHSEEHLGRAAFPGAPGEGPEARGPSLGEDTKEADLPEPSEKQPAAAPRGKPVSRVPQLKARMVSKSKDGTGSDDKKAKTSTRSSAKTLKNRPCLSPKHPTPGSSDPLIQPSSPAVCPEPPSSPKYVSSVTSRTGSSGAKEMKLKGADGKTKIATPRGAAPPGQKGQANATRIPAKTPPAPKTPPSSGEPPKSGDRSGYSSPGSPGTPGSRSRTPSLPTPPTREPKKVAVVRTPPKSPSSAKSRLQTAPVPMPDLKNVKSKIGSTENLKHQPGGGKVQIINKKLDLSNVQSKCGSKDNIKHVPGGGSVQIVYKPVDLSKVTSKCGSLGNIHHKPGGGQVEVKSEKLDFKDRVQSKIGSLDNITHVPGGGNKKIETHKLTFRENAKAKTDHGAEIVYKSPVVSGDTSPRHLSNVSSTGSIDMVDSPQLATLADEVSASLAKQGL

CN(Cc1ccccn1)Cc1cc(/C=C/c2ccnc(CN(C)Cc3ccccn3)c2)ccn1.O=[N+]([O-])[O-].O=[N+]([O-])[O-].O=[N+]([O-])[O-].O=[N+]([O-])[O-].[Zn+2].[Zn+2] [compound 1]
stoichiometric ratio of binding (Job's plot, CD λ=291 nm): 1:1

Reference: US8093060B2, “Multisite phosphorylated peptide (protein) recognizing compound and detection method, imaging method, alzheimer's disease diagnosing method and reagent kit using the same” (Canon Kabushiki Kaisha, priority 2008, dated 2012)
